# Source: the supplement of paper PMC8728848
# This is one part of the list.
# B1: NK11 (Sus scrofa) (peptide)
# chain: KISKRILTGKK
# Tests used:
# Assay in all cases: glycan array binding signal (z-score within array); higher = stronger binding
# Settings in all cases: glycan notation: IUPAC condensed, linker removed
# Fuc(a1-2)Gal = target: Fuc(a1-2)Gal
# Method in brief: (§1)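 Arrays were curated from the Consortium for Functional Glycomics database, 3228 in total, and kept only where the protein sequence was available. Binding is expressed as a within-array Z-score. This score was averaged across arrays of the same protein sequence at different concentrations or buffers and across linkers, and negative values can be read as non-binding.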
# Fuc(a1-2)Gal(b1-3)GalNAc = target: Fuc(a1-2)Gal(b1-3)GalNAc
# Method in brief: as §1
# [1] = target: Fuc(a1-2)Gal(b1-3)GalNAc(a1-3)[Fuc(a1-2)]Gal(b1-4)Glc
# Method in brief: as §1
# [2] = target: Fuc(a1-2)Gal(b1-3)GalNAc(a1-3)[Fuc(a1-2)]Gal(b1-4)GlcNAc
# Method in brief: as §1
# [3] = target: Fuc(a1-2)Gal(b1-3)GalNAc(b1-3)Gal
# Method in brief: as §1
# [4] = target: Fuc(a1-2)Gal(b1-3)GalNAc(b1-3)Gal(a1-4)Gal(b1-4)Glc
# Method in brief: as §1
# [5] = target: Fuc(a1-2)Gal(b1-3)GalNAc(b1-4)[Neu5Ac(a2-3)]Gal(b1-4)Glc
# Method in brief: as §1
# Fuc(a1-2)Gal(b1-3)GlcNAc = target: Fuc(a1-2)Gal(b1-3)GlcNAc
# Method in brief: as §1
# [6] = target: Fuc(a1-2)Gal(b1-3)GlcNAc(b1-2)Man(a1-3)[Fuc(a1-2)Gal(b1-3)GlcNAc(b1-2)Man(a1-6)]Man(b1-4)GlcNAc(b1-4)GlcNAc
# Method in brief: as §1
# [7] = target: Fuc(a1-2)Gal(b1-3)GlcNAc(b1-2)Man(a1-3)[Fuc(a1-2)Gal(b1-3)GlcNAc(b1-2)Man(a1-6)]Man(b1-4)GlcNAc(b1-4)[Fuc(a1-6)]GlcNAc
# Method in brief: as §1
# [8] = target: Fuc(a1-2)Gal(b1-3)GlcNAc(b1-3)Gal(b1-4)Glc
# Method in brief: as §1
# [9] = target: Fuc(a1-2)Gal(b1-3)GlcNAc(b1-3)GalNAc
# Method in brief: as §1
# [10] = target: Fuc(a1-2)Gal(b1-3)GlcNAc(b1-3)[Fuc(a1-2)Gal(b1-3)GlcNAc(b1-6)]GalNAc
# Method in brief: as §1
# [11] = target: Fuc(a1-2)Gal(b1-3)GlcNAc(b1-3)[Fuc(a1-3)[Gal(b1-4)]GlcNAc(b1-6)]Gal(b1-4)Glc
# Method in brief: as §1
# [12] = target: Fuc(a1-2)Gal(b1-3)GlcNAc(b1-3)[Gal(b1-4)GlcNAc(b1-6)]Gal(b1-4)Glc
# Method in brief: as §1
# [13] = target: Fuc(a1-2)Gal(b1-3)GlcNAc(b1-3)[Neu5Ac(a2-6)Gal(b1-4)GlcNAc(b1-6)]Gal(b1-4)Glc
# Method in brief: as §1
# [14] = target: Fuc(a1-2)Gal(b1-3)GlcNAc6S
# Method in brief: as §1
# [15] = target: Fuc(a1-2)Gal(b1-3)[Fuc(a1-4)]GlcNAc
# Method in brief: as §1
# [16] = target: Fuc(a1-2)Gal(b1-3)[Fuc(a1-4)]GlcNAc(b1-2)Man(a1-3)[Fuc(a1-2)Gal(b1-3)[Fuc(a1-4)]GlcNAc(b1-2)Man(a1-3)]Man(b1-4)GlcNAc(b1-4)GlcNAc
# Method in brief: as §1
# [17] = target: Fuc(a1-2)Gal(b1-3)[Fuc(a1-4)]GlcNAc(b1-2)Man(a1-3)[Fuc(a1-2)Gal(b1-3)[Fuc(a1-4)]GlcNAc(b1-2)Man(a1-6)]Man(b1-4)GlcNAc(b1-4)GlcNAc
# Method in brief: as §1
# [18] = target: Fuc(a1-2)Gal(b1-3)[Fuc(a1-4)]GlcNAc(b1-2)Man(a1-3)[Fuc(a1-2)Gal(b1-3)[Fuc(a1-4)]GlcNAc(b1-2)Man(a1-6)]Man(b1-4)GlcNAc(b1-4)[Fuc(a1-6)]GlcNAc(b1-4)[Fuc(a1-6)]GlcNAc
# Method in brief: as §1
# [19] = target: Fuc(a1-2)Gal(b1-3)[Fuc(a1-4)]GlcNAc(b1-3)[Fuc(a1-3)[Gal(b1-4)]GlcNAc(b1-6)]Gal(b1-4)Glc
# Method in brief: as §1
# [20] = target: Fuc(a1-2)Gal(b1-3)[Fuc(a1-4)]GlcNAc(b1-3)[Gal(b1-4)GlcNAc(b1-6)]Gal(b1-4)Glc
# Method in brief: as §1
# [21] = target: Fuc(a1-2)Gal(b1-4)Fuc(a1-3)]GlcNAc(b1-2)Man(a1-3)[Fuc(a1-2)Gal(b1-4)[Fuc(a1-3)]GlcNAc(b1-2)Man(a1-6)]Man(b1-4)GlcNAc(b1-4)GlcNAc
# Method in brief: as §1
# Fuc(a1-2)Gal(b1-4)Glc = target: Fuc(a1-2)Gal(b1-4)Glc
# Method in brief: as §1
# Fuc(a1-2)Gal(b1-4)Glc6S = target: Fuc(a1-2)Gal(b1-4)Glc6S
# Method in brief: as §1
# Fuc(a1-2)Gal(b1-4)GlcNAc = target: Fuc(a1-2)Gal(b1-4)GlcNAc
# Method in brief: as §1
# [22] = target: Fuc(a1-2)Gal(b1-4)GlcNAc(b1-2)Man
# Method in brief: as §1
# [23] = target: Fuc(a1-2)Gal(b1-4)GlcNAc(b1-2)Man(a1-3)[Fuc(a1-2)Gal(b1-4)GlcNAc(b1-2)Man(a1-6)]Man(b1-4)GlcNAc(b1-4)GlcNAc
# Method in brief: as §1
# [24] = target: Fuc(a1-2)Gal(b1-4)GlcNAc(b1-2)Man(a1-3)[Fuc(a1-2)Gal(b1-4)GlcNAc(b1-2)Man(a1-6)]Man(b1-4)GlcNAc(b1-4)[Fuc(a1-6)]GlcNAc
# Method in brief: as §1
binder,measurement,setting,value
B1,glycan array binding signal (z-score),Fuc(a1-2)Gal,-0.368
same,glycan array binding signal (z-score),Fuc(a1-2)Gal(b1-3)GalNAc,-0.148
same,glycan array binding signal (z-score),[1],-0.498
same,glycan array binding signal (z-score),[2],-0.539
same,glycan array binding signal (z-score),[3],-0.392
same,glycan array binding signal (z-score),[4],0.084
same,glycan array binding signal (z-score),[5],0.654
same,glycan array binding signal (z-score),Fuc(a1-2)Gal(b1-3)GlcNAc,-0.549
same,glycan array binding signal (z-score),[6],-0.957
same,glycan array binding signal (z-score),[7],-0.504
same,glycan array binding signal (z-score),[8],0.203
same,glycan array binding signal (z-score),[9],-0.367
same,glycan array binding signal (z-score),[10],-1.15
same,glycan array binding signal (z-score),[11],-0.41
same,glycan array binding signal (z-score),[12],-0.36
same,glycan array binding signal (z-score),[13],-0.466
same,glycan array binding signal (z-score),[14],-0.416
same,glycan array binding signal (z-score),[15],-0.166
same,glycan array binding signal (z-score),[16],-0.214
same,glycan array binding signal (z-score),[17],0.156
same,glycan array binding signal (z-score),[18],0.503
same,glycan array binding signal (z-score),[19],-0.004
same,glycan array binding signal (z-score),[20],-0.767
same,glycan array binding signal (z-score),[21],0.774
same,glycan array binding signal (z-score),Fuc(a1-2)Gal(b1-4)Glc,-0.492
same,glycan array binding signal (z-score),Fuc(a1-2)Gal(b1-4)Glc6S,-0.124
same,glycan array binding signal (z-score),Fuc(a1-2)Gal(b1-4)GlcNAc,-0.676
same,glycan array binding signal (z-score),[22],0.05
same,glycan array binding signal (z-score),[23],-0.741
same,glycan array binding signal (z-score),[24],-0.353

# Two entries picked at random from the list so far, as already listed:
binder,measurement,setting,value
B1,glycan array binding signal (z-score),[23],-0.741
same,glycan array binding signal (z-score),[5],0.654
